# ± gives the standard deviation of the averaged measurements. Only a part is listed here, and it is no random draw. Small differences around the control level are noise.
# Sequences of proteins named here, by UniProt entry; tags and fusion partners are left off. A change or cut given only in a name is not applied to a line headed by its entry.
# UniProt Q13523: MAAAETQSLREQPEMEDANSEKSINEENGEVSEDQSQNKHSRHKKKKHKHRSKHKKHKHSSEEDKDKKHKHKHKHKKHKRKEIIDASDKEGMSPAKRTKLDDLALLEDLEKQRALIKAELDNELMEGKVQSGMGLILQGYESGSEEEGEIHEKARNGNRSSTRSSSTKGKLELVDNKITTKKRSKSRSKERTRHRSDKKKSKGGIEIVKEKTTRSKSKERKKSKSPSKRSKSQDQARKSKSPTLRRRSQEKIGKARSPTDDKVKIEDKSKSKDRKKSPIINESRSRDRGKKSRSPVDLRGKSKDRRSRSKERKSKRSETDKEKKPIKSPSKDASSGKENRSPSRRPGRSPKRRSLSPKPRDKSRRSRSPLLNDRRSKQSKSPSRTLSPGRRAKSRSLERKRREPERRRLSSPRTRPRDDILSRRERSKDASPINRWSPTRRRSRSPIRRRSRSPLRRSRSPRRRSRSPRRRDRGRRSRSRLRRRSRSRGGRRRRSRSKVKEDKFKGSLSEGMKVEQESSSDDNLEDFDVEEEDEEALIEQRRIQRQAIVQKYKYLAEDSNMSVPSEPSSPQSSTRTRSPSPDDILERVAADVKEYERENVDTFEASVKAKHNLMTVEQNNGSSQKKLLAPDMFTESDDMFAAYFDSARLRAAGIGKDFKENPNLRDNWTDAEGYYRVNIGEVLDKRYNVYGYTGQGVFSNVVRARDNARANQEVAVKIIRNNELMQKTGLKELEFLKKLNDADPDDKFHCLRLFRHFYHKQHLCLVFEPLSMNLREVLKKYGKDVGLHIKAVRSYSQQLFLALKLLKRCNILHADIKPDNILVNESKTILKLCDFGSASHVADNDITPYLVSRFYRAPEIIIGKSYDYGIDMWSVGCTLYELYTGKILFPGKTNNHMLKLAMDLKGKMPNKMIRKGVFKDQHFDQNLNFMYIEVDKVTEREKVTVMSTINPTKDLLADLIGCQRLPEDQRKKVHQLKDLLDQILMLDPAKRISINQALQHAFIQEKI
# UniProt Q05D32: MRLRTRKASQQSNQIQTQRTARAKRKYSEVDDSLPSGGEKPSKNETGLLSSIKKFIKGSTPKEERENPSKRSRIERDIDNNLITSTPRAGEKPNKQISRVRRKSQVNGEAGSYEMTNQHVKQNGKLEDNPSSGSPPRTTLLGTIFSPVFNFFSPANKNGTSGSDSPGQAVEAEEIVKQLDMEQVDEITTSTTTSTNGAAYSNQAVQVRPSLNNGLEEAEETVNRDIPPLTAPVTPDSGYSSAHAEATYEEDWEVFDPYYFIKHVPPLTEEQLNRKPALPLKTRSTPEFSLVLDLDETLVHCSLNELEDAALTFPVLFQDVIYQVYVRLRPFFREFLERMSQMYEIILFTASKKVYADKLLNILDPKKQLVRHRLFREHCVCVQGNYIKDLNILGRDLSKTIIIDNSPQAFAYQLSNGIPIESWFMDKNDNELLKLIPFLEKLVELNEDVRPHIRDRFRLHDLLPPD
# UniProt Q10567: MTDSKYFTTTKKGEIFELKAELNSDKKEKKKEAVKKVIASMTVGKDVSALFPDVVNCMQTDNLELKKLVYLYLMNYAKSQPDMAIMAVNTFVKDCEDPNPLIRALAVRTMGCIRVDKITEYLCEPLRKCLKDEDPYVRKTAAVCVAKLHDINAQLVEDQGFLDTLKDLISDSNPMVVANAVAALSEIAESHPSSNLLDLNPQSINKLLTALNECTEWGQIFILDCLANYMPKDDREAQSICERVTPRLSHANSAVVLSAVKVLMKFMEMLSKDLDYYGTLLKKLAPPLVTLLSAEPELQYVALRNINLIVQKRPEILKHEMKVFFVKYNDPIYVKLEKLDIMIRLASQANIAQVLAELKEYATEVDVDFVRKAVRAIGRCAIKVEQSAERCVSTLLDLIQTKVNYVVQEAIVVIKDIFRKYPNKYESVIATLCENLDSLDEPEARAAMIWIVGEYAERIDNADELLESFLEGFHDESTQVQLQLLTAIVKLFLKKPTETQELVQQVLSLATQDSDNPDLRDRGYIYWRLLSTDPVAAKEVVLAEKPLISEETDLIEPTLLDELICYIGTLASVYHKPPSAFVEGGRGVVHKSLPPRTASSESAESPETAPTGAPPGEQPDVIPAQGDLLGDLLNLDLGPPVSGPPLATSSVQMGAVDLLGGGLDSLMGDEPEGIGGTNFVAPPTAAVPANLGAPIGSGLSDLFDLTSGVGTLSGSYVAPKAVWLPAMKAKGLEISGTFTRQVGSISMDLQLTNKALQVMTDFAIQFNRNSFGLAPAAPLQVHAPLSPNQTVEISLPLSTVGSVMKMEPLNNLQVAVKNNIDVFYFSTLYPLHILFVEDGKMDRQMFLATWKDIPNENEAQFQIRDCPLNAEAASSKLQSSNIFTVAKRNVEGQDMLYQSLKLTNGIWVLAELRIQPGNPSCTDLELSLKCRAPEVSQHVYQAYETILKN
# UniProt Q12805: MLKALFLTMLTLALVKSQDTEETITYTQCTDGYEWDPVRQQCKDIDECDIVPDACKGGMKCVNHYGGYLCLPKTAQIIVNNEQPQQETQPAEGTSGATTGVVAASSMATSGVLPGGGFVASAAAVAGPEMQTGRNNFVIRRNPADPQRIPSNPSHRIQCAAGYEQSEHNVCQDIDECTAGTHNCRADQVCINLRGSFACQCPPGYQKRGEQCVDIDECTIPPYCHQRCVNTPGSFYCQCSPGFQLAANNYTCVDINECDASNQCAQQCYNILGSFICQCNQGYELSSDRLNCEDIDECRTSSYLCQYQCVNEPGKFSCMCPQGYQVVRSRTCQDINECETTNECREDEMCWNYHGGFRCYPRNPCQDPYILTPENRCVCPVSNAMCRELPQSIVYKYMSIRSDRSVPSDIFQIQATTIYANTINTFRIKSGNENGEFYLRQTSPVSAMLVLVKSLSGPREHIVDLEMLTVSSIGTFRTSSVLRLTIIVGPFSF
# UniProt Q01082, whole entry: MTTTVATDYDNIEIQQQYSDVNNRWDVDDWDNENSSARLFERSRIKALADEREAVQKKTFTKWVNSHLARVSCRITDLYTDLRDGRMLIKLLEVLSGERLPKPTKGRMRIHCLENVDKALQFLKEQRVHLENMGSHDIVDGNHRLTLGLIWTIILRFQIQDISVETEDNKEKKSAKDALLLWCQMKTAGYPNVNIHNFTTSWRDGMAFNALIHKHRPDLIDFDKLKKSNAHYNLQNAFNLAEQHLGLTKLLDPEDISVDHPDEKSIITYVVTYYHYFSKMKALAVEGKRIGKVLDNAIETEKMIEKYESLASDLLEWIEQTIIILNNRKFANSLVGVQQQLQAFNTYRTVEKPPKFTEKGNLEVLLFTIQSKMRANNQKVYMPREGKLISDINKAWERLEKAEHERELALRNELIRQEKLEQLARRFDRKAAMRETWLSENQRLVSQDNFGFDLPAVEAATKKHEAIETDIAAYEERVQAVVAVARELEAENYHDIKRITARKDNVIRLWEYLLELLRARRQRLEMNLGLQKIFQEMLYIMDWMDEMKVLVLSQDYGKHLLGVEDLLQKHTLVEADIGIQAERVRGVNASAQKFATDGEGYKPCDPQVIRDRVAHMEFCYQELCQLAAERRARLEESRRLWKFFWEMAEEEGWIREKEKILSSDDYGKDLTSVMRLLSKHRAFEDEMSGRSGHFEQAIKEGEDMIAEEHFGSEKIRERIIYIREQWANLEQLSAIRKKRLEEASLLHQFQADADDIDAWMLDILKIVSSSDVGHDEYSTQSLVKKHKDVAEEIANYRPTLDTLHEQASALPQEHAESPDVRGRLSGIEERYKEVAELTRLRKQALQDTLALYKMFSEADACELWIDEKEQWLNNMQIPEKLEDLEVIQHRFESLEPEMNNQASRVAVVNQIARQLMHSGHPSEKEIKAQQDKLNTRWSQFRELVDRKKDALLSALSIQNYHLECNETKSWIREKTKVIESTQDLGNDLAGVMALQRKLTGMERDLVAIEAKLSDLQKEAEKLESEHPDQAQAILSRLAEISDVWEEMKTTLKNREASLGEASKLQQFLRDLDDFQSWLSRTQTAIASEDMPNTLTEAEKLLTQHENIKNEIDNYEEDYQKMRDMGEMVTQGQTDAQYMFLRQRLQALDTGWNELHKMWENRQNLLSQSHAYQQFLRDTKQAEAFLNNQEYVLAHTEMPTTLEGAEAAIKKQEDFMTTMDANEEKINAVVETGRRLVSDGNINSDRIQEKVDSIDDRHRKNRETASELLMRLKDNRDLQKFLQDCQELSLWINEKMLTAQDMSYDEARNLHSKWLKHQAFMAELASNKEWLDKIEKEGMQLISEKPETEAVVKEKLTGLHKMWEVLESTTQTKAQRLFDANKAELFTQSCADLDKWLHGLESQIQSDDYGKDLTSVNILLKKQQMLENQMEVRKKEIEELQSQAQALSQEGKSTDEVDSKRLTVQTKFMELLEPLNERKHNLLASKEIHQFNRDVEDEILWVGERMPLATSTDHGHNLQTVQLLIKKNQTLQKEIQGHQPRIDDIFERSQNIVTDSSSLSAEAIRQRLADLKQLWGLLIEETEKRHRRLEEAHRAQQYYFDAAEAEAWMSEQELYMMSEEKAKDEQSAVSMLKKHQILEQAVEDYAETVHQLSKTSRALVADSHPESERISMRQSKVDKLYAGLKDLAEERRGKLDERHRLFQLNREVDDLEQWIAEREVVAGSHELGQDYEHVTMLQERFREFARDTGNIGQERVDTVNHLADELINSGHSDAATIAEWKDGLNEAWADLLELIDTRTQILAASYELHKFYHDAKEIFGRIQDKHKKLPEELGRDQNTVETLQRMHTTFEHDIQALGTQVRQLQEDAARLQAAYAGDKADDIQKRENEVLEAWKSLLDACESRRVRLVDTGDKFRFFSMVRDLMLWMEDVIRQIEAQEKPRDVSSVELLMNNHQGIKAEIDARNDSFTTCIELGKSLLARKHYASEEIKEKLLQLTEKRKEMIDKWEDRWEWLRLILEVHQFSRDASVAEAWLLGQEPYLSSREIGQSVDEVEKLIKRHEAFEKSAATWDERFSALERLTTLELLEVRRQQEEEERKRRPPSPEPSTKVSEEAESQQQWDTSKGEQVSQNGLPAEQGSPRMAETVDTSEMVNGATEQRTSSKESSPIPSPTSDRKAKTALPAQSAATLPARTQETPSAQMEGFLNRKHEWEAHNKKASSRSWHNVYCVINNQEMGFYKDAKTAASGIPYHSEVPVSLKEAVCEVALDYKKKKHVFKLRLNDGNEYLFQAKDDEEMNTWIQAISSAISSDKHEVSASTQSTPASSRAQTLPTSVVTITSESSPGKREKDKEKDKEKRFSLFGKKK
# UniProt Q01826: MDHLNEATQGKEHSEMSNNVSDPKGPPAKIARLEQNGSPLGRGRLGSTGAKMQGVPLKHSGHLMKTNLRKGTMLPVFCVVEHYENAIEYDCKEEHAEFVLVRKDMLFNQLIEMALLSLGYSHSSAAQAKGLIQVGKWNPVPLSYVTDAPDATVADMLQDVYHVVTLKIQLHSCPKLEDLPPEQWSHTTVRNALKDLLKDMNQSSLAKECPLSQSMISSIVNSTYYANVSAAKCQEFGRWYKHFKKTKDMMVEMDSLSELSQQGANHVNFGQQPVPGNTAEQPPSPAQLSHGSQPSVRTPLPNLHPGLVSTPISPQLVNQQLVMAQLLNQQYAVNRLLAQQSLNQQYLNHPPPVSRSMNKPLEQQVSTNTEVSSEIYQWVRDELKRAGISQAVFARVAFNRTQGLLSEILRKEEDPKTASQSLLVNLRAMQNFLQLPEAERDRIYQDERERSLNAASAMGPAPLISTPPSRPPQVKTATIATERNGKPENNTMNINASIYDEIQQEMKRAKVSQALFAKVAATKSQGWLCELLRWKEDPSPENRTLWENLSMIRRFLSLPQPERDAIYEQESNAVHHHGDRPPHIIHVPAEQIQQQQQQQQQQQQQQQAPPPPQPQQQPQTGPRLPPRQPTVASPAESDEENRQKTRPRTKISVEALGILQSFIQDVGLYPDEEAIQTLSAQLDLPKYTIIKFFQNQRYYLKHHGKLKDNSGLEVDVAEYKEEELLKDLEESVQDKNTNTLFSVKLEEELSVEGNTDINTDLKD
# UniProt Q13158: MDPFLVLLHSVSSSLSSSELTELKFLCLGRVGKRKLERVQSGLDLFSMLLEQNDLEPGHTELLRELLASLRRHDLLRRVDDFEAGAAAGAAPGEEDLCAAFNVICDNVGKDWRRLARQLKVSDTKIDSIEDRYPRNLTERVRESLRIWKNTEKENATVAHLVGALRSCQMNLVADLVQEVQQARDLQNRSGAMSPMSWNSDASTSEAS
# Compound: Nc1ncnc2c1ncn2[C@@H]1O[C@H](COP(=O)(O)OP(=O)(O)OP(=O)(O)O)[C@@H](O)[C@H]1O [adenosine triphosphate]
# Assay: NP40-soluble protein abundance relative to vehicle (solubility fold change) (ratio); higher = more soluble protein in presence of ATP
# Method in brief: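 Eight concentrations, 0.1 to 10 mM, were tested on Jurkat crude lysate for 10 min at room temperature and then 3 min at 37 °C, in three independent experiments. The lysate was solubilised with 0.8% NP40 and benzonase, ultracentrifuged, and the supernatant TMT-labelled for LC-MS/MS. Each value is the fold change against the detergent-processed vehicle in its own replicate, from vsn-normalised intensities.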
Target,NP40-soluble protein abundance (concentration: 0.1mM),NP40-soluble protein abundance (concentration: 0.5mM),NP40-soluble protein abundance (concentration: 1mM),NP40-soluble protein abundance (concentration: 2mM),NP40-soluble protein abundance (concentration: 4mM),NP40-soluble protein abundance (concentration: 6mM),NP40-soluble protein abundance (concentration: 8mM),NP40-soluble protein abundance (concentration: 10mM)
PRPF4B (UniProt Q13523),1.07 ± 0.021,1.28 ± 0.036,1.29 ± 0.015,1.329 ± 0.011,1.46 ± 0.018,1.6 ± 0.061,1.68 ± 0.041,1.8 ± 0.022
CTDSPL2 (UniProt Q05D32),0.999 ± 0.11,1.07 ± 0.042,1.13 ± 0.11,1.13 ± 0.07,1.27 ± 0.09,1.32 ± 0.082,1.33 ± 0.14,1.47 ± 0.03
UniProt Q10567 and related entries,0.989 ± 0.018,1.01 ± 0.051,0.9721 ± 0.0088,0.973 ± 0.015,0.922 ± 0.022,0.964 ± 0.013,0.951 ± 0.0014,0.934 ± 0.024
UniProt Q12805 and related entries,1.05 ± 0.052,0.986 ± 0.036,1.03 ± 0.091,1.04 ± 0.052,1.06 ± 0.075,1 ± 0.088,1.05 ± 0.023,1.04 ± 0.025
UniProt Q02078-2|Q02078-6,0.954 ± 0.05,0.94 ± 0.023,0.954 ± 0.086,0.939 ± 0.046,0.936 ± 0.065,0.926 ± 0.036,0.907 ± 0.032,0.949 ± 0.048
UniProt Q01082 and related entries,0.884 ± 0.042,0.879 ± 0.062,0.887 ± 0.029,0.899 ± 0.014,0.928 ± 0.03,1.05 ± 0.037,1.04 ± 0.06,1.07 ± 0.048
UniProt Q02880-2,1.08 ± 0.038,1.22 ± 0.035,1.28 ± 0.061,1.36 ± 0.045,1.57 ± 0.067,1.73 ± 0.13,1.99 ± 0.11,2.07 ± 0.057
UniProt Q01826 and related entries,0.967 ± 0.015,0.975 ± 0.032,0.952 ± 0.051,0.96 ± 0.023,0.919 ± 0.039,0.96 ± 0.031,0.928 ± 0.02,0.922 ± 0.011
TRIM14 (UniProt Q14142),1.01 ± 0.097,1.03 ± 0.12,1.08 ± 0.044,1.05 ± 0.037,1.13 ± 0.088,1.1 ± 0.083,1.17 ± 0.067,1.27 ± 0.2
UniProt Q12872 and related entries,1.02 ± 0.054,1.16 ± 0.062,1.24 ± 0.083,1.33 ± 0.049,1.5 ± 0.049,1.77 ± 0.068,1.77 ± 0.066,1.93 ± 0.075
UniProt Q02040,0.997 ± 0.033,1.21 ± 0.18,1.4 ± 0.24,1.56 ± 0.34,1.8 ± 0.45,2.02 ± 0.41,2.19 ± 0.54,2.43 ± 0.62
FADD (UniProt Q13158),0.992 ± 0.028,0.963 ± 0.14,1.1 ± 0.14,1.05 ± 0.05,1.06 ± 0.11,1.05 ± 0.046,1.06 ± 0.13,0.969 ± 0.11

# Single values from the entries so far:
# NP40-soluble protein abundance (concentration: 8mM), UniProt Q02040 reads 2.19 ± 0.54
# NP40-soluble protein abundance (concentration: 10mM), CTDSPL2 (UniProt Q05D32) reads 1.47 ± 0.03
